Assay results taken from the supplement of paper PMC12823440, “Inhibitors supercharge kinase turnover through native proteolytic circuits” (Nature, 2025).
Structures can show the parent of a compound that is named as a salt. The list shows a part of the results. Hit calls seldom repeat between salt and free forms of one compound.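 In K562 cells expressing nanoluciferase-fused kinases, luminescence was recorded at 4 h intervals between 2 and 18 h, normalized as percent of control with DMSO at 100% and a positive control at 0%. A significant (2 sigma) signal drop marks a time point as decreased. The authors' rule for a hit is not shown and takes in more than the number of time points.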

Amino acid sequences for entries named in this document (tags omitted). A change or cut given only in a name is not applied to a line headed by its entry.
UniProt P29317, whole entry: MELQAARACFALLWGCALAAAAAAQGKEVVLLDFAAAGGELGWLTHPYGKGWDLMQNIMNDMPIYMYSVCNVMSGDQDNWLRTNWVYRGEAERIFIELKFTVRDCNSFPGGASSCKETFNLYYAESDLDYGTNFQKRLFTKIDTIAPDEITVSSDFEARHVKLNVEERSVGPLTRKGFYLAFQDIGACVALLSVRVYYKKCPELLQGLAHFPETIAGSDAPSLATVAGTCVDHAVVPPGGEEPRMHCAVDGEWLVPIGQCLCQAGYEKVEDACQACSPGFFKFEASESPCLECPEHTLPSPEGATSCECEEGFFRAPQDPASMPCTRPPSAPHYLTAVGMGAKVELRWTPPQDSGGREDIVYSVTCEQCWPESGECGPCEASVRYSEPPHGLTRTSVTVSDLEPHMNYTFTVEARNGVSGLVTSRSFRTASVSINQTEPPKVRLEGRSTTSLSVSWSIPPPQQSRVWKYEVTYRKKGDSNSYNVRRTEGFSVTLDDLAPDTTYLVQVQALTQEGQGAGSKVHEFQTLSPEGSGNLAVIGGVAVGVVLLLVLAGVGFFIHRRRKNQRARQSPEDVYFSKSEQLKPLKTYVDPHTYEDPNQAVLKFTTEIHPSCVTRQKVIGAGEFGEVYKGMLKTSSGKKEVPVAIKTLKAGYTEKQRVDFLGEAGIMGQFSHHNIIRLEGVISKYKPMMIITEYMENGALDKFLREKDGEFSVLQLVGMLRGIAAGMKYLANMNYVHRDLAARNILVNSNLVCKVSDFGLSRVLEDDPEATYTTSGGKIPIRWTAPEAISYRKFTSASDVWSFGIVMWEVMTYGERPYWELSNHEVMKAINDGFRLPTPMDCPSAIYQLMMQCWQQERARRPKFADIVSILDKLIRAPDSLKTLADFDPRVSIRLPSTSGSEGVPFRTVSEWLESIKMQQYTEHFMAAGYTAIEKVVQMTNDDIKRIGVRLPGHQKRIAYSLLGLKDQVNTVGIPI
UniProt Q15303, whole entry R711C: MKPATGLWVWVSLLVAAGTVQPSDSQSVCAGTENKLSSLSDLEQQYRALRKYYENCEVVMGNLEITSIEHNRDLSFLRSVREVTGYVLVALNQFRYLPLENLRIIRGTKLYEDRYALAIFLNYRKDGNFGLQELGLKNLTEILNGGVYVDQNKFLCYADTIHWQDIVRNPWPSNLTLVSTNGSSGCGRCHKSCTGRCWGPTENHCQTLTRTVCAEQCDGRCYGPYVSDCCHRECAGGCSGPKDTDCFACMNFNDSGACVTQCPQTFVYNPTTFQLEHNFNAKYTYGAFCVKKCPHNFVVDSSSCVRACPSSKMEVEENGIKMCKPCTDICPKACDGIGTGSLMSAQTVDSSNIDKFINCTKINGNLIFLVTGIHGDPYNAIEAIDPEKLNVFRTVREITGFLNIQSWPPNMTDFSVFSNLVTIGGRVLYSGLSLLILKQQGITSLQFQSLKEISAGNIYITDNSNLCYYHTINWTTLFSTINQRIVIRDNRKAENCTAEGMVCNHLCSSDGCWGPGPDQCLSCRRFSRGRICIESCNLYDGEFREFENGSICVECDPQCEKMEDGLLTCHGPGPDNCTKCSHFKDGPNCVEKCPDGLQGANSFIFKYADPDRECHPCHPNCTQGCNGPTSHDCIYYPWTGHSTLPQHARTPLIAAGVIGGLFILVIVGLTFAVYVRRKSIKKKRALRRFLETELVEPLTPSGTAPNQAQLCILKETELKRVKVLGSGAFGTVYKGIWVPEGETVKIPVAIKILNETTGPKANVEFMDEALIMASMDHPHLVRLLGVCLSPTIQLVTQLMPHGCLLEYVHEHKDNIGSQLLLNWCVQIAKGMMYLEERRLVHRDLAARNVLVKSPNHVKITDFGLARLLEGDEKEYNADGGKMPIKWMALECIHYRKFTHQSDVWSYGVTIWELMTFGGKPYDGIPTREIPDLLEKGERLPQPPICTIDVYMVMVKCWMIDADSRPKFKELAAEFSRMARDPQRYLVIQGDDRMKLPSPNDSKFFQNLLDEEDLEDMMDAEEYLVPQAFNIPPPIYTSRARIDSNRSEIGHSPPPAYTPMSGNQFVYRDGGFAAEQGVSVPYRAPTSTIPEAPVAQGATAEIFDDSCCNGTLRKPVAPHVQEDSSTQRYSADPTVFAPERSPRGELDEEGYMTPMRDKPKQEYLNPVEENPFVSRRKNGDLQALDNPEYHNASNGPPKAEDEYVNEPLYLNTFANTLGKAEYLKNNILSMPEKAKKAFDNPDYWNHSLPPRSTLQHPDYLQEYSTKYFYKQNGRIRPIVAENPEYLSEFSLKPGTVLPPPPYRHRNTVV
UniProt P11362, whole entry, looked up: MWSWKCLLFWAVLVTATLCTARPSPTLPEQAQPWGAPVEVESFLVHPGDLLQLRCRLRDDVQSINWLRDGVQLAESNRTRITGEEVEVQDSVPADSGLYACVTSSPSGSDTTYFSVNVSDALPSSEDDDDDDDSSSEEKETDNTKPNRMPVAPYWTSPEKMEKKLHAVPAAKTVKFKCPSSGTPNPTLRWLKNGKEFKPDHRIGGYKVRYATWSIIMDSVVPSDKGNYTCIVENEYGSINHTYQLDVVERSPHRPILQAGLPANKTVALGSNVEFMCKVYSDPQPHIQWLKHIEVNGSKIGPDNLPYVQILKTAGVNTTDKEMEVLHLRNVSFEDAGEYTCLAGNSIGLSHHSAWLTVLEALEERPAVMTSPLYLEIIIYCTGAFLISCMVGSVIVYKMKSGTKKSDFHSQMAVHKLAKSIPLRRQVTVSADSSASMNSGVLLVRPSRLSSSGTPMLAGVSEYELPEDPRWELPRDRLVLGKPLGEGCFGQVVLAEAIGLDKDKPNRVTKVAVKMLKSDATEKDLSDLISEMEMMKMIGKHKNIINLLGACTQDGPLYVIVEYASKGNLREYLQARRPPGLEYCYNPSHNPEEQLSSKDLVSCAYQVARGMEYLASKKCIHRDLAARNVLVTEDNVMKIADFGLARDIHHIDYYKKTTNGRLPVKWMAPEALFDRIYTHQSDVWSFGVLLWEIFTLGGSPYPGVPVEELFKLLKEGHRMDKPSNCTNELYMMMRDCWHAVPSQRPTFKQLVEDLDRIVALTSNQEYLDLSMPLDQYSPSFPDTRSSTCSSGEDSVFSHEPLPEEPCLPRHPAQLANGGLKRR
UniProt P21802, whole entry, looked up: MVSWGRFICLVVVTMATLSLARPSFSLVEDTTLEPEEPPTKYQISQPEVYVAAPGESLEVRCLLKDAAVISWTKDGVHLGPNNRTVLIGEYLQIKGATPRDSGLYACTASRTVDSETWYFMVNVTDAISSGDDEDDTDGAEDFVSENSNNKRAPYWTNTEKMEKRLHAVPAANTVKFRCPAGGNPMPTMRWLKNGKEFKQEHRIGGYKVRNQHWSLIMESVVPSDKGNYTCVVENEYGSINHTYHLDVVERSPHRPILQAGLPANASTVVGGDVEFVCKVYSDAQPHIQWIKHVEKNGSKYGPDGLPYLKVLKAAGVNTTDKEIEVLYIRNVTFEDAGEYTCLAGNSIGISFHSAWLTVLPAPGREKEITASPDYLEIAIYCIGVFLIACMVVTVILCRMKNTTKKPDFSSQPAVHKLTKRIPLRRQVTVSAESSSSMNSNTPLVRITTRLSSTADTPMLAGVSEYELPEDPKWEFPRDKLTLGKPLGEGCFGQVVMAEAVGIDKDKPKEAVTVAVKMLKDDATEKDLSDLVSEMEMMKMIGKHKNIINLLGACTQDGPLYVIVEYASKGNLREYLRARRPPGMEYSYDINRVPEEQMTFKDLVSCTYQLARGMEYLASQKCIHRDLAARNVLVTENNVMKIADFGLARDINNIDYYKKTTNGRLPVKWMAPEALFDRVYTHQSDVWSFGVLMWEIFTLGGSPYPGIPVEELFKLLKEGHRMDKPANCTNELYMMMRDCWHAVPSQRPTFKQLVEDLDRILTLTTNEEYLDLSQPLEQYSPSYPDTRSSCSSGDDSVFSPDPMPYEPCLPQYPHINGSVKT
UniProt P22607, whole entry, looked up: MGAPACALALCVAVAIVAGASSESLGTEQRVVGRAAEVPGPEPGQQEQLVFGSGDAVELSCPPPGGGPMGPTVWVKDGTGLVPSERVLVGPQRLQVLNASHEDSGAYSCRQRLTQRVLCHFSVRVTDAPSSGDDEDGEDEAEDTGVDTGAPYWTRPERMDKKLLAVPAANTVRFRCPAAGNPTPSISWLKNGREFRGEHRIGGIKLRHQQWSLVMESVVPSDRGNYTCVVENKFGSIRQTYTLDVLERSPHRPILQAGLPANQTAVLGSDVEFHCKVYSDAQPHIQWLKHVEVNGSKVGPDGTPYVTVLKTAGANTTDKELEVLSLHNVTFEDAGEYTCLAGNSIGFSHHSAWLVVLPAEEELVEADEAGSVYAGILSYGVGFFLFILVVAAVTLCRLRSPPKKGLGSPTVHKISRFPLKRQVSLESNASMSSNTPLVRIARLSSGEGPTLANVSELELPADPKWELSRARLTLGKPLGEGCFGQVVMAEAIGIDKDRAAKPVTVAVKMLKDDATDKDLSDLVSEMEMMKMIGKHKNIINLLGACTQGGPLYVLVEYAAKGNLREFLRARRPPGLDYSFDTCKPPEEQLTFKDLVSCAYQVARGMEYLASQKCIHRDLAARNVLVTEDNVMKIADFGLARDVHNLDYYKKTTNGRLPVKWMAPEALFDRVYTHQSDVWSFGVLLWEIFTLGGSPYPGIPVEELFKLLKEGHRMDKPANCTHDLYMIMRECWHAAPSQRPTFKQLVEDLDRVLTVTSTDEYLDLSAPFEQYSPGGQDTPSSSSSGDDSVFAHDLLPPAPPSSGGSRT
UniProt P06241, whole entry, looked up: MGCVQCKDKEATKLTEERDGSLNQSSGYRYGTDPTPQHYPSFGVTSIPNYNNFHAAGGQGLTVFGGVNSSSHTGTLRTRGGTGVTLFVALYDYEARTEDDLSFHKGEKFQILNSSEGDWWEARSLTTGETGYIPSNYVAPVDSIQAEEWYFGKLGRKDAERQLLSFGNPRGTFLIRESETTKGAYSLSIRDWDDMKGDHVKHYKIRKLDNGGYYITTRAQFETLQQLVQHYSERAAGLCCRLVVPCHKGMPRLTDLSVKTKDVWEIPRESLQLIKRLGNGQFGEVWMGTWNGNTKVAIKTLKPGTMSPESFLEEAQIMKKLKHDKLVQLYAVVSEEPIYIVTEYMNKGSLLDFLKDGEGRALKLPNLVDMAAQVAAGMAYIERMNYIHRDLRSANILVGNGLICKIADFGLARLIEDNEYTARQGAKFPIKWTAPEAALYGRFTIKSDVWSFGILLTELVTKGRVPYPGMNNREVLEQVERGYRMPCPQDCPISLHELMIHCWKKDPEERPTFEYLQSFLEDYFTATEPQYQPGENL
UniProt P14616: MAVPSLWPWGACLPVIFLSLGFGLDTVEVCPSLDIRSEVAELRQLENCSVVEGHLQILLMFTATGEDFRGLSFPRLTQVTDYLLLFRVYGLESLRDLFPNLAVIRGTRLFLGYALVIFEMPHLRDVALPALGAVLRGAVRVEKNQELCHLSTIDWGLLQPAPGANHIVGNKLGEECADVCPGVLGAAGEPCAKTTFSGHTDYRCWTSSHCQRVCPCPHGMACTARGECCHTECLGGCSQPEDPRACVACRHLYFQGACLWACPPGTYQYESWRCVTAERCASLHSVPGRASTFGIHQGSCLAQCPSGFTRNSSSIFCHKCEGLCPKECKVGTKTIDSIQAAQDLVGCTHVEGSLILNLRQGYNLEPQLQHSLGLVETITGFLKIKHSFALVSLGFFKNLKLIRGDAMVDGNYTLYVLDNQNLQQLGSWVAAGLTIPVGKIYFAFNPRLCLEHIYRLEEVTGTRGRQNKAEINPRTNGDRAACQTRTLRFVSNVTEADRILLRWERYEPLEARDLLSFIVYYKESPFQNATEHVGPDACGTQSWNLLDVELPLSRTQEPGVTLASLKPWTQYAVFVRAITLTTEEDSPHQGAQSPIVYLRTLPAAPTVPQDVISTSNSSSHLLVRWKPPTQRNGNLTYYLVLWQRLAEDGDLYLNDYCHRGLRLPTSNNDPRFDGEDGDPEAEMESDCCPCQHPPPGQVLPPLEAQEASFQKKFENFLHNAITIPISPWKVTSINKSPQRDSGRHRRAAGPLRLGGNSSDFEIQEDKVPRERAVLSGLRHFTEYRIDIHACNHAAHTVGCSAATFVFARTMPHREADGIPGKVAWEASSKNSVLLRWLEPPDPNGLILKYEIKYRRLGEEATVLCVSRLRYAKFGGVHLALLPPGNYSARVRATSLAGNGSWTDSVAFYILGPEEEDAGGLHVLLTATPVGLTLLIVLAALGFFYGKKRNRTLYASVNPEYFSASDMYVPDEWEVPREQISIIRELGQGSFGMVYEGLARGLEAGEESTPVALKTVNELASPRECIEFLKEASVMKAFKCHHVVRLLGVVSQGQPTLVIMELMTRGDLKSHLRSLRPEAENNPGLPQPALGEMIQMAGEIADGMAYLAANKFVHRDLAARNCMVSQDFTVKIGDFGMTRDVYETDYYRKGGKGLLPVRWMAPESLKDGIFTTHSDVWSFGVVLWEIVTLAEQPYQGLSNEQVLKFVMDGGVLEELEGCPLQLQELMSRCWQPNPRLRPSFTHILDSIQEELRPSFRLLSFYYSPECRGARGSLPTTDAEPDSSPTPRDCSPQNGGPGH

Experiments:
Experiment in all cases: kinase-Nluc reporter destabilization hit call (1 = scored as downregulated) (binary); higher = compound decreases kinase abundance
Conditions in all cases: K562, 2-18 h
EGFR = EGFR (UniProt P00533)
EGFR_G719S = EGFR_G719S (UniProt P00533)
EGFR_G719S_T790M = EGFR_G719S_T790M (UniProt P00533)
EGFR_L718V = EGFR_L718V (UniProt P00533)
EGFR_L858R = EGFR_L858R (UniProt P00533)
EGFR_L861Q = EGFR_L861Q (UniProt P00533)
EGFR_T790M = EGFR_T790M (UniProt P00533)
EPHA2 = EPHA2 (UniProt P29317)
ERBB3 = ERBB3 (UniProt P21860)
[1] = molecular target: ERBB4_R711C (clone: ERBB4_mut) (UniProt Q15303)
ERN1 = ERN1 (UniProt O75460)
FGFR1 = FGFR1 (UniProt P11362)
FGFR2 = FGFR2 (UniProt P21802)
FGFR3 = FGFR3 (UniProt P22607)
FGR = FGR (UniProt P09769)
FLT3 = FLT3 (UniProt P36888)
FYN = FYN (UniProt P06241)
GSK3A = GSK3A (UniProt P49840)
HER2 = HER2 (UniProt P04626)
INSRR = INSRR (UniProt P14616)

Measured: kinase-Nluc reporter destabilization hit call

CC(C)(C)n1nc(-c2cccc3ccccc23)c2c(N)ncnc21 [1-Naphthyl PP1]
inactive: EGFR; 10 µM 0 | EGFR_G719S; 10 µM 0 | EGFR_G719S_T790M; 10 µM 0 | EGFR_L718V; 10 µM 0 | EGFR_L858R; 10 µM 0 | EGFR_L861Q; 10 µM 0 | EGFR_T790M; 10 µM 0 | EPHA2; 10 µM 0 | ERBB3; 10 µM 0 | [1]; 10 µM 0 | ERN1; 10 µM 0 | FGFR1; 10 µM 0 | FGFR2; 10 µM 0 | FGFR3; 10 µM 0 | FGR; 10 µM 0 | FLT3; 10 µM 0 | FYN; 10 µM 0 | GSK3A; 10 µM 0 | HER2; 10 µM 0 | INSRR; 10 µM 0

OCCn1cc(-c2cnc3nnn(Cc4ccc5ncccc5c4)c3n2)cn1
inactive: EGFR; 10 µM 0 | EGFR_G719S; 10 µM 0 | EGFR_G719S_T790M; 10 µM 0 | EGFR_L718V; 10 µM 0 | EGFR_L858R; 10 µM 0 | EGFR_L861Q; 10 µM 0 | EGFR_T790M; 10 µM 0 | EPHA2; 10 µM 0 | ERBB3; 10 µM 0 | [1]; 10 µM 0 | ERN1; 10 µM 0 | FGFR1; 10 µM 0 | FGFR2; 10 µM 0 | FGFR3; 10 µM 0 | FGR; 10 µM 0 | FLT3; 10 µM 0 | FYN; 10 µM 0 | GSK3A; 10 µM 0 | HER2; 10 µM 0 | INSRR; 10 µM 0

Nc1ncnc2c1c(-c1ccc(Oc3ccccc3)cc1)nn2[C@@H]1CCCNC1 [IBT6A (hydrochloride)]
inactive: EGFR; 2.5 µM 0 | EGFR_G719S; 2.5 µM 0 | EGFR_G719S_T790M; 2.5 µM 0 | EGFR_L718V; 2.5 µM 0 | EGFR_L858R; 2.5 µM 0 | EGFR_L861Q; 2.5 µM 0 | EGFR_T790M; 2.5 µM 0 | EPHA2; 2.5 µM 0 | ERBB3; 2.5 µM 0 | [1]; 2.5 µM 0 | ERN1; 2.5 µM 0 | FGFR1; 2.5 µM 0 | FGFR2; 2.5 µM 0 | FGFR3; 2.5 µM 0 | FGR; 2.5 µM 0 | FLT3; 2.5 µM 0 | FYN; 2.5 µM 0 | GSK3A; 2.5 µM 0 | HER2; 2.5 µM 0 | INSRR; 2.5 µM 0

N#CCC1(n2cc(-c3ncnc4[nH]ccc34)cn2)CN(C2CCN(C(=O)c3ccnc(C(F)(F)F)c3F)CC2)C1 [Itacitinib]
inactive: EGFR; 10 µM 0 | EGFR_G719S; 10 µM 0 | EGFR_G719S_T790M; 10 µM 0 | EGFR_L718V; 10 µM 0 | EGFR_L858R; 10 µM 0 | EGFR_L861Q; 10 µM 0 | EGFR_T790M; 10 µM 0 | EPHA2; 10 µM 0 | ERBB3; 10 µM 0 | [1]; 10 µM 0 | ERN1; 10 µM 0 | FGFR1; 10 µM 0 | FGFR2; 10 µM 0 | FGFR3; 10 µM 0 | FGR; 10 µM 0 | FLT3; 10 µM 0 | FYN; 10 µM 0 | GSK3A; 10 µM 0 | HER2; 10 µM 0 | INSRR; 10 µM 0

COc1cc2nccc(Nc3cc(OC)c(OC)c(OC)c3)c2cc1OC [GAK inhibitor 49 (hydrochloride)]
inactive: EGFR; 10 µM 0 | EGFR_G719S; 10 µM 0 | EGFR_G719S_T790M; 10 µM 0 | EGFR_L718V; 10 µM 0 | EGFR_L858R; 10 µM 0 | EGFR_L861Q; 10 µM 0 | EGFR_T790M; 10 µM 0 | EPHA2; 10 µM 0 | ERBB3; 10 µM 0 | [1]; 10 µM 0 | ERN1; 10 µM 0 | FGFR1; 10 µM 0 | FGFR2; 10 µM 0 | FGFR3; 10 µM 0 | FGR; 10 µM 0 | FLT3; 10 µM 0 | FYN; 10 µM 0 | GSK3A; 10 µM 0 | HER2; 10 µM 0 | INSRR; 10 µM 0

No new results follow: two of the compounds above.
Nc1ncnc2c1c(-c1ccc(Oc3ccccc3)cc1)nn2[C@@H]1CCCNC1 [IBT6A (hydrochloride)]
inactive: EGFR; 2.5 µM 0 | EGFR_G719S; 2.5 µM 0 | EGFR_G719S_T790M; 2.5 µM 0 | EGFR_L718V; 2.5 µM 0 | EGFR_L858R; 2.5 µM 0 | EGFR_L861Q; 2.5 µM 0 | EGFR_T790M; 2.5 µM 0 | EPHA2; 2.5 µM 0 | ERBB3; 2.5 µM 0 | [1]; 2.5 µM 0 | ERN1; 2.5 µM 0 | FGFR1; 2.5 µM 0 | FGFR2; 2.5 µM 0 | FGFR3; 2.5 µM 0 | FGR; 2.5 µM 0 | FLT3; 2.5 µM 0 | FYN; 2.5 µM 0 | GSK3A; 2.5 µM 0 | HER2; 2.5 µM 0 | INSRR; 2.5 µM 0

N#CCC1(n2cc(-c3ncnc4[nH]ccc34)cn2)CN(C2CCN(C(=O)c3ccnc(C(F)(F)F)c3F)CC2)C1 [Itacitinib]
inactive: EGFR; 10 µM 0 | EGFR_G719S; 10 µM 0 | EGFR_G719S_T790M; 10 µM 0 | EGFR_L718V; 10 µM 0 | EGFR_L858R; 10 µM 0 | EGFR_L861Q; 10 µM 0 | EGFR_T790M; 10 µM 0 | EPHA2; 10 µM 0 | ERBB3; 10 µM 0 | [1]; 10 µM 0 | ERN1; 10 µM 0 | FGFR1; 10 µM 0 | FGFR2; 10 µM 0 | FGFR3; 10 µM 0 | FGR; 10 µM 0 | FLT3; 10 µM 0 | FYN; 10 µM 0 | GSK3A; 10 µM 0 | HER2; 10 µM 0 | INSRR; 10 µM 0

(listing goes on)

COc1ccc2c(c1)C(c1ccc(F)cc1)=C(CN1CCCC1)CO2
inactive: EGFR; 10 µM 0 | EGFR_G719S; 10 µM 0 | EGFR_G719S_T790M; 10 µM 0 | EGFR_L718V; 10 µM 0 | EGFR_L858R; 10 µM 0 | EGFR_L861Q; 10 µM 0 | EGFR_T790M; 10 µM 0 | EPHA2; 10 µM 0 | ERBB3; 10 µM 0 | [1]; 10 µM 0 | ERN1; 10 µM 0 | FGFR1; 10 µM 0 | FGFR2; 10 µM 0 | FGFR3; 10 µM 0 | FGR; 10 µM 0 | FLT3; 10 µM 0 | FYN; 10 µM 0 | GSK3A; 10 µM 0 | HER2; 10 µM 0 | INSRR; 10 µM 0

N=C(N)NC(=O)c1nc(Cl)c(N)nc1N [Amiloride hydrochloride dihydrate]
inactive: EGFR; 10 µM 0 | EGFR_G719S; 10 µM 0 | EGFR_G719S_T790M; 10 µM 0 | EGFR_L718V; 10 µM 0 | EGFR_L858R; 10 µM 0 | EGFR_L861Q; 10 µM 0 | EGFR_T790M; 10 µM 0 | EPHA2; 10 µM 0 | ERBB3; 10 µM 0 | [1]; 10 µM 0 | ERN1; 10 µM 0 | FGFR1; 10 µM 0 | FGFR2; 10 µM 0 | FGFR3; 10 µM 0 | FGR; 10 µM 0 | FLT3; 10 µM 0 | FYN; 10 µM 0 | GSK3A; 10 µM 0 | HER2; 10 µM 0 | INSRR; 10 µM 0

COCCOc1cc(F)c2c(Nc3ccc(NC(=O)Cn4cc(C(C)C)nn4)cc3)ncnc2c1 [AZD3229 Tosylate]
inactive: EGFR; 10 µM 0 | EGFR_G719S; 10 µM 0 | EGFR_G719S_T790M; 10 µM 0 | EGFR_L718V; 10 µM 0 | EGFR_L858R; 10 µM 0 | EGFR_L861Q; 10 µM 0 | EGFR_T790M; 10 µM 0 | EPHA2; 10 µM 0 | ERBB3; 10 µM 0 | [1]; 10 µM 0 | ERN1; 10 µM 0 | FGFR1; 10 µM 0 | FGFR2; 10 µM 0 | FGFR3; 10 µM 0 | FGR; 10 µM 0 | FLT3; 10 µM 0 | FYN; 10 µM 0 | GSK3A; 10 µM 0 | HER2; 10 µM 0 | INSRR; 10 µM 0

Cc1ccc(NC(=O)c2ccc(CN3CCN(C)CC3)cc2)cc1Nc1nc(-c2cccnc2)cs1 [Masitinib (mesylate)]
inactive: EGFR; 2.5 µM 0 | EGFR_G719S; 2.5 µM 0 | EGFR_G719S_T790M; 2.5 µM 0 | EGFR_L718V; 2.5 µM 0 | EGFR_L858R; 2.5 µM 0 | EGFR_L861Q; 2.5 µM 0 | EGFR_T790M; 2.5 µM 0 | EPHA2; 2.5 µM 0 | ERBB3; 2.5 µM 0 | [1]; 2.5 µM 0 | ERN1; 2.5 µM 0 | FGFR1; 2.5 µM 0 | FGFR2; 2.5 µM 0 | FGFR3; 2.5 µM 0 | FGR; 2.5 µM 0 | FLT3; 2.5 µM 0 | FYN; 2.5 µM 0 | GSK3A; 2.5 µM 0 | HER2; 2.5 µM 0 | INSRR; 2.5 µM 0
